The list shows a part of the results. Shown are side measurements of this screen, not its main read-out; they come without a call. Most of these compounds were active or inconclusive in the main read-out, so they are no random draw. Words in brackets tell the shape of the fitted curve; partial curves, single points and poor fits give uncertain potencies.
Experiment: qHTS Assay for Lipid Storage Modulators in Drosophila S3 Cells;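 for cell number change: cells counted by Cell Tracker Red CMTPX staining in the red channel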
Conditions: BODIPY lipid droplet fluorescence, 18-24 h; for cell number change: measured here: cell count max response, cells fed with added oleic acid
Summary of the method: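 Drosophila S3 cells loaded with oleic acid (400 uM, as added) and compounds at several concentrations; lipid droplets imaged by 488-nm laser-scanning cytometry, 500–530 nm intensity and object ratio to cell channel. Percent activity normalized to 20 uM Triacsin C.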

[1] = measured here: cell number channel AC50, cells fed with added oleic acid
[2] = measured here: lipid fluorescence (Fed channel) AC50, cells fed with added oleic acid

| SMILES | cell number change [%] | AC50 [1] | AC50 [2] |
| --- | --- | --- | --- |
| Cc1cc(C)c(S(=O)(=O)N2CCN(C(=O)C3CC3)CC2)c(C)c1 | -2.81 |  |  |
| CSc1ccc(S(=O)(=O)NC2CCCCCC2)cc1 |  | 6.51 µM [rising, single point] |  |
| OC(CNCCNc1ncccc1C(F)(F)F)Cn1ccc2ccccc21 (stereo unspecified) | -18.3 |  | 0.13 µM [falling, full curve, poor fit] |
| O=C(Nc1ccccc1C(=O)NC1CCCCC1)c1ccccc1 | 28 |  | 2.06 µM [rising, full curve] |
| CCN(CC)S(=O)(=O)c1ccc(NC(=O)CC(NC(C)=O)c2ccccc2)cc1 (stereo unspecified) | 11.2 |  | 6.51 µM [falling, single point] |
| CCOC(=O)N1CCC(Nc2c(OCC)c(=O)c2=O)CC1 | 18.1 |  | 1.16 µM [rising, single point] |
| COc1ccc(N(CC(=O)N2CCCCCC2)S(=O)(=O)c2ccccc2[N+](=O)[O-])c(OC)c1 | -21.9 |  | 6.51 µM [falling, single point] |
| O=C1C2C(C(=O)N1CCc1ccccc1)C1C=CC2C12CC2 (stereo unspecified) |  |  | 0.058 µM [falling, full curve, poor fit] |
| CCC(Sc1nc2ncnc(N)c2[nH]1)C(=O)O (stereo unspecified) | 8.3 | 5.8 µM [rising, single point] |  |
| COCC(=O)N/N=C\c1cccc(OC)c1OC/C=C/c1ccccc1 | -48.5 | 29.1 µM [falling, single point] |  |
| CCCN(CC(=O)Nc1ccccc1C)C(=O)C1CC(=O)N(c2cccc(C)c2C)C1 (stereo unspecified) | -11.8 |  | 20.6 µM [rising, partial curve] |
| CCOc1cc(-n2cnnn2)c(OCC)cc1NC(=O)c1cnccn1 | 22.6 |  | 6.51 µM [rising, single point] |
| Cc1cc(-c2ccccc2)c2c3c(cn2n1)c(=O)n(C)c(=O)n3C |  |  | 0.146 µM [falling, full curve, poor fit] |
| O=C1N(c2ccccc2C(F)(F)F)OC1(Cc1ccccc1)c1ccccc1 (stereo unspecified) | -57.3 | 16.4 µM [falling, partial curve] |  |
| CCOC(=O)c1[nH]c(C)c(C(=O)NCCc2ccc(OC)cc2)c1C | 58 | 5.17 µM [rising, full curve] | 5.17 µM [rising, full curve] |
| Cc1ccn2cc(CSc3ccccc3N)nc2c1 | 17.6 |  | 18.4 µM [rising, single point] |
| COc1ccc2nc(Nc3nc(CSc4nnc(C)s4)cc(=O)[nH]3)nc(C)c2c1 |  |  | 0.82 µM [rising, partial curve] |
| CCOc1ccc(NC(=O)Nc2cc(OCC(F)(F)F)cc(OCC(F)(F)F)c2)cc1 |  |  | 2.59 µM [falling, full curve] |
| CCC1CCCCN1C(=O)CSc1nc2c(cnn2-c2ccc(C)cc2)c(=O)[nH]1 (stereo unspecified) | 32.9 | 18.4 µM [rising, partial curve, poor fit] |  |
| COc1ccc(C(C[N+](=O)[O-])n2nc(C)cc2C)cc1 (stereo unspecified) |  |  | 5.8 µM [falling, full curve] |

Single entries from the list.
Value for CCN(CC)S(=O)(=O)c1ccc(NC(=O)CC(NC(C)=O)c2ccccc2)cc1 (stereo unspecified) under AC50 [2]: 6.51 µM [falling, single point]
Value for O=C1C2C(C(=O)N1CCc1ccccc1)C1C=CC2C12CC2 (stereo unspecified) under AC50 [2]: 0.058 µM [falling, full curve, poor fit]

Later entries.

| SMILES | cell number change [%] | AC50 [1] | AC50 [2] |
| --- | --- | --- | --- |
| OC(Cn1ccnc1)c1ccc(Cl)cc1Cl (stereo unspecified) | 56 | 5.17 µM [rising, full curve] | 5.17 µM [rising, single point] |
| CCCCn1c(N)c(N(CCOC)C(=O)CSCc2ccc(C)cc2)c(=O)[nH]c1=O | 48.5 | 25.9 µM [rising, single point] |  |
| O=S1(=O)N=C(N/N=C/c2cccs2)c2ccccc21 | 0.702 |  |  |
| COc1cccc(N2C(=O)C3CCCN3C2c2ccc(F)cc2)c1 (stereo unspecified) |  |  | 1.3 µM [rising, full curve, poor fit] |
| Cc1n[nH]c(C)c1CCc1nc2c3ccccc3nc(SCC(=O)Nc3ccccc3F)n2n1 | -64.1 |  | 0.13 µM [rising, full curve, poor fit] |
| O=C(COC(=O)/C=C/c1cccc(C(F)(F)F)c1)NC(c1ccccc1)c1ccccc1 | -15.1 | 0.0731 µM [falling, full curve, poor fit] | 0.0651 µM [falling, full curve, poor fit] |
| Cc1cccc(C)c1NC(=O)CNCC(=O)N(C)C |  |  | 5.17 µM [falling, single point] |
| COc1ccc(S(=O)(=O)NCc2ccncc2)cc1OC | -20.1 |  | 2.31 µM [rising, single point] |
| Cc1cc(C(=O)CSc2nncs2)c(C)n1-c1ccc2c(c1)OCO2 |  | 0.651 µM [rising, single point] |  |
| COc1ccc2c(c1)OC[C@H]1[C@@H]2N2C(=O)CNC(=O)[C@@]2(C)[C@H]1c1ccccc1 | -22.6 |  | 2.06 µM [falling, single point] |
| O=C(NCCc1ccccc1F)C1CCCN(c2nc3ccccc3s2)C1 (stereo unspecified) | 7.26 |  | 23.1 µM [falling, single point] |
| CC(=O)N1CC(=O)N(Cc2ccccc2)/C(=C/c2ccccc2)C1=O | -50 | 2.59 µM [falling, full curve] |  |
| COc1ccc(CCNC(=O)CN2CCC(C)CC2)cc1OC | 51 | 29.1 µM [rising, single point] | 6.51 µM [rising, single point] |
| O=C(c1cnn2c(C(F)F)cc(C3CC3)nc12)N1CCc2ccccc2C1 | -5.36 |  | 1.64 µM [rising, partial curve] |
| O=C(CN1CCN(S(=O)(=O)c2ccccc2C(F)(F)F)CC1)NCc1cccs1 | -12.4 |  |  |
| COc1ccc(S(=O)(=O)N/N=C\c2ccc3c(c2)OCO3)c(OC)c1 | -30.2 | 13 µM [falling, single point] | 20.6 µM [falling, partial curve] |
| Cc1ccc(S(=O)(=O)N2CCN(S(=O)(=O)N3CCOCC3)CC2)cc1C | -8.05 |  | 6.51 µM [falling, single point] |
| COc1ccc(CNC(=O)COc2ccccc2C(=O)c2cnn(-c3ccccc3)c2)cc1OC | -1.42 |  | 7.31 µM [falling, single point] |
| CCN(CC)c1ccc(C2CC(=O)NC3=C2C(=O)CC(C)(C)C3)cc1 (stereo unspecified) | 1.76 |  | 0.082 µM [falling, full curve, poor fit] |
